US20110091467A1 (CENTRE FOR ADDICTION AND MENTAL HEALTH, published 2011)
Results are given in words; binding and its absence hold for the method and conditions named. Binding seen in cells or lysates may run through a third protein. Some results given as binding are weak or reduced against the parent protein; the word gives no strength.

Protein sequences, listed by entry. Tags and fused reporters are not part of them.
UniProt P23977: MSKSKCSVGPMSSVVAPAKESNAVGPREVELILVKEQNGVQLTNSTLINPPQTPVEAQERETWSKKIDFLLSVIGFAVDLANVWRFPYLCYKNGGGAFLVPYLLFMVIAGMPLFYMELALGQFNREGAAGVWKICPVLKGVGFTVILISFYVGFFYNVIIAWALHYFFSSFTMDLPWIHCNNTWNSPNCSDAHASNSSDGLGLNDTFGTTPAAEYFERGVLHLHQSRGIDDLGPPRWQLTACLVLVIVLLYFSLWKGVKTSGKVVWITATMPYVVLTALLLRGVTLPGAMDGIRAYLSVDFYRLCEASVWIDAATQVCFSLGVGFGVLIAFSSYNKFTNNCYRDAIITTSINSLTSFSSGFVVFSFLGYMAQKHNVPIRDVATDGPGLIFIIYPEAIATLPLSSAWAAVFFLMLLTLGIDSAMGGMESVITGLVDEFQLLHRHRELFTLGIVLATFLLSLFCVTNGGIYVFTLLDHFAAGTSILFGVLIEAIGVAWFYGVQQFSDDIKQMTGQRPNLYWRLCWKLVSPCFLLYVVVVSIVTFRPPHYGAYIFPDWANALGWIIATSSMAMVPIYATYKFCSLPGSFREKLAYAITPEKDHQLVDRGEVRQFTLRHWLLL
UniProt P61169: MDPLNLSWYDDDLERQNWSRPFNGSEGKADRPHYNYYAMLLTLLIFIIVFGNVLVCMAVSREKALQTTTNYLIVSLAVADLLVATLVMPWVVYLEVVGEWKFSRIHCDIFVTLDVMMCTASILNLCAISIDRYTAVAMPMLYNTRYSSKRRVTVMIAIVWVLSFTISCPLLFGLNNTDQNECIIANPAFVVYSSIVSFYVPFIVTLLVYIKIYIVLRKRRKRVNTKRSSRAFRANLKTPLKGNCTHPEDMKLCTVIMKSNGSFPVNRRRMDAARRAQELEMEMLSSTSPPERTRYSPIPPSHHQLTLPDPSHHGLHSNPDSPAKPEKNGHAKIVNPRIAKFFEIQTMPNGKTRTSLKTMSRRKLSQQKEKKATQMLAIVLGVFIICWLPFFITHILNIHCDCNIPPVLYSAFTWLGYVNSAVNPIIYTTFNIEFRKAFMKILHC

Experiments:
[1] = molecular target: dopamine transporter (DAT) from solubilized rat striatal tissue (rat) (UniProt P23977); assay: co-immunoprecipitation, FIG. 1A
[2] = molecular target: dopamine transporter (DAT) from solubilized rat striatal tissue (rat) (UniProt P23977); assay: co-immunoprecipitation from rat striatal tissue, Western blot

## dopamine D2 receptor from solubilized rat striatal tissue (from UniProt P61169 1-444)
[1]
  binding: binds
[2]
  binding: binds
